The values that follow come from PMC7819943, “Rice protein-binding microarrays: a tool to detect cis-acting elements near promoter regions in rice”.

The chains behind the UniProt entries cited, without tags or fusion partners.
UniProt Q0JBA9, entry or part of it: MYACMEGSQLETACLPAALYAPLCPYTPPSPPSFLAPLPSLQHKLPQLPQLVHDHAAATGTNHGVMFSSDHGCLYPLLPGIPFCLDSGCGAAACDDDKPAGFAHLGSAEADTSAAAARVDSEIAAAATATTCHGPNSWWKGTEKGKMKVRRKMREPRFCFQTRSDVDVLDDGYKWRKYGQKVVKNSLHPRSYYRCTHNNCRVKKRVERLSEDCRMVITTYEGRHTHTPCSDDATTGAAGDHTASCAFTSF

This is one part of the list.

This experiment deals with OsWRKY34 (Oryza sativa, UniProt Q0JBA9 1-250). Description: protein-binding microarray (RPBM); PBS, 2% BSA, 51.3 ng/ul salmon testes DNA, 50 uM zinc acetate, 200 nM TF, 25 C, 1 h; high values mean tight binding. The following applies: protein: recombinant; tags: N-terminal polyhistidine and DsRed monomer fusion (pET32a); label: CyDye5-dUTP incorporated in the synthesized complementary strand; 3' TTTTT single-stranded linker to array surface; dsDNA, one strand shown. Put shortly:
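Ni–NTA purification followed expression in E. coli BL21-CodonPlus of transcription factors fused N-terminally to a polyhistidine tag and DsRed. At 200 nM in PBS with 2% BSA, salmon testes DNA and 50 µM zinc acetate, the protein was incubated for 1 h at 25 °C with a custom Agilent array that had been primer-extended with Cy5-dUTP and blocked with 2% BSA. After washing, the array was read on an Axon 4000B scanner. The binding signal is per-feature fluorescence intensity in arbitrary units.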
“TTTAACACGCCAGTCGCCGCGCAATATATTACCATTAATTCGGAGTCACCTAGTGCAG”: the binding signal is 8050 fluorescence intensity (a.u.).

As for “CATACTAGGTCCCTTATTTTTACATCGGATTACAAAGTCACGGAGTCACCTAGTGCAG”, the binding signal was 10500 fluorescence intensity (a.u.).

“GATTAGTGGGCCCATTTATAGGTAATGACATGTATGTTTTCGGAGTCACCTAGTGCAG”: the binding signal is 8320 fluorescence intensity (a.u.).

Regarding “TACTTACTGCTTCAACGGATGGCAGTATATTGCATTCTTTCGGAGTCACCTAGTGCAG”, the binding signal was 8590 fluorescence intensity (a.u.).

For the sequence “GGTTGATACTGTTGTGGAGTAGTGTAGTGGTAGCGAGCTCCGGAGTCACCTAGTGCAG”, the binding signal is 8030 fluorescence intensity (a.u.).

As for “TCATGCGCATGTTTTCCGCACTATTAACCGTTGTAATTTTCGGAGTCACCTAGTGCAG”, the binding signal is 8250 fluorescence intensity (a.u.).

On to “TCTTGGTTCTGAATTTCAGTTCTCTCTTTTCCTCTGCATCCGGAGTCACCTAGTGCAG”, for which the binding signal was 8260 fluorescence intensity (a.u.).

Take “TATTCAGATTGTGGTTCATGTGGCAAGCACGTACGTACACCGGAGTCACCTAGTGCAG”: the binding signal is 9650 fluorescence intensity (a.u.).

For the sequence “CTGCTAGAAATTTCGTTTCTTCAGATAGCTCATCATTTTTCGGAGTCACCTAGTGCAG”, the binding signal was 8260 fluorescence intensity (a.u.).

As to “GTACTCTCTTTGTTTCATATTATAAGTCATTTGACTTTTTCGGAGTCACCTAGTGCAG”, the binding signal is 11600 fluorescence intensity (a.u.).

Consider “TCGTCTCCACTCCTCCGTTGCCATCCTCGTCGTCGTCCTCCGGAGTCACCTAGTGCAG”, for which the binding signal is 9270 fluorescence intensity (a.u.).

In the case of “ATTAAGCATGTGTTGGTGGGTTGAATGTTGATGCCGCTGGCGGAGTCACCTAGTGCAG”, the binding signal was 8380 fluorescence intensity (a.u.).

In the case of “GCTTTTTATCTCTCTCTCTCTCCTGGGACGCGTGCCCCTCCGGAGTCACCTAGTGCAG”, the binding signal is 9360 fluorescence intensity (a.u.).

“TCACCATATTGTCATCCTTTCTTTTTCATAAGTAGACAACCGGAGTCACCTAGTGCAG”: the binding signal was 8250 fluorescence intensity (a.u.).

As to “CCACCCAAACACCACGACCTCCTTCCACCGTCGCCTTCTTCGGAGTCACCTAGTGCAG”, the binding signal was 9420 fluorescence intensity (a.u.).

In the case of “GTAGAAGTCTGTATCGTCATGCGTCAACATATCATGATATCGGAGTCACCTAGTGCAG”, the binding signal is 8040 fluorescence intensity (a.u.).

Take “GCCCAAAAAACCCACCACTCCATCGCGCGAACCGCCCCAACGGAGTCACCTAGTGCAG”: the binding signal was 9240 fluorescence intensity (a.u.).

Take “GACGTGTATACTCTTGTTACGATATGCGTGTTTTTATTAGCGGAGTCACCTAGTGCAG”: the binding signal is 8900 fluorescence intensity (a.u.).

As for “GGGTTGCAGGTTCACTGTGTCTAGCTACTGGAATTGGGGACGGAGTCACCTAGTGCAG”, the binding signal is 9910 fluorescence intensity (a.u.).

For “AGCTACCTGATACTACCTGATATACCTTCCTTCCTCGTCTCGGAGTCACCTAGTGCAG”, the binding signal was 8730 fluorescence intensity (a.u.).

With “AAACCGCCTTACATCGGCGTCTCAGCTCCACCGTTTCATTCGGAGTCACCTAGTGCAG”, the binding signal is 10300 fluorescence intensity (a.u.).

Turning to “CAACCACCGCGCACTCACACACACTCTCCGACGATATTTTCGGAGTCACCTAGTGCAG”, the binding signal was 8980 fluorescence intensity (a.u.).

Consider “ATCATGAAGCCTTGTTGGACGGTCATCTTGTTTCTCTCATCGGAGTCACCTAGTGCAG”, for which the binding signal is 10200 fluorescence intensity (a.u.).

In the case of “TGTGTGCCCACCCTGCTGCCAACATGCTTCTTGTTTAAATCGGAGTCACCTAGTGCAG”, the binding signal was 10500 fluorescence intensity (a.u.).

On to “ACACTGTATTTAAATAGCATCTATACTTCCATCTAGTTCACGGAGTCACCTAGTGCAG”, for which the binding signal is 8400 fluorescence intensity (a.u.).

For “CACCTACTTTCACTTATTATCCAATCACAACATTCTTCCACGGAGTCACCTAGTGCAG”, the binding signal is 10700 fluorescence intensity (a.u.).

Turning to “GCCCGCGGTTATGGGCGGGTCTAACAATGTCTTTCGTGATCGGAGTCACCTAGTGCAG”, the binding signal is 9280 fluorescence intensity (a.u.).

Take “AGAAACAGCGCCACCCCGATCTCCTACCTCTACCGCTGCTCGGAGTCACCTAGTGCAG”: the binding signal was 9820 fluorescence intensity (a.u.).

In the case of “TACCTCATCGGCGATCGGCCTTGCCCGCCTTGTCCAACCTCGGAGTCACCTAGTGCAG”, the binding signal is 8040 fluorescence intensity (a.u.).

“GTCAATGCCCCGCTTGTTCCATGCATGCATCTCCAGCTGCCGGAGTCACCTAGTGCAG”: the binding signal was 8170 fluorescence intensity (a.u.).

In the case of “GCTGCTGCCGTCTTGTTGGTCGCCTCTGCAACTTCTCTTGCGGAGTCACCTAGTGCAG”, the binding signal was 8290 fluorescence intensity (a.u.).

Take “TTCCTTTTCTTTCCTCCGTTGATTGCGTGTGCCTGCCGGTCGGAGTCACCTAGTGCAG”: the binding signal is 12100 fluorescence intensity (a.u.).

In the case of “AATTCTCATGTCTCCGCTAACTGAATTTCCTTGTATATTTCGGAGTCACCTAGTGCAG”, the binding signal was 8760 fluorescence intensity (a.u.).

For the sequence “GTGGGTCGCATGCGTTTGTACGGTGTTTCTTAAAAAAAATCGGAGTCACCTAGTGCAG”, the binding signal is 9540 fluorescence intensity (a.u.).

Take “ACTCTATCTTCTCAACTTGTACGTCCTCTCTCGTTTTCTACGGAGTCACCTAGTGCAG”: the binding signal is 10800 fluorescence intensity (a.u.).

Turning to “AGGTTGTGTTGGTCTCAGCTGCGTGGCGGACTCGTTGGGACGGAGTCACCTAGTGCAG”, the binding signal is 9150 fluorescence intensity (a.u.).

Regarding “TAATATTGCTTTCATCTGTACCATCGATCTTTTGCTCCATCGGAGTCACCTAGTGCAG”, the binding signal was 13500 fluorescence intensity (a.u.).

With “AACTCATGGCTGCGCTTATTTTCGGACGGGTCATTGGGGTCGGAGTCACCTAGTGCAG”, the binding signal was 9340 fluorescence intensity (a.u.).

Consider “GGCCGCCTCGCCTGTTCTTGCTGTGGTTGGTTCTTGGGATCGGAGTCACCTAGTGCAG”, for which the binding signal is 12700 fluorescence intensity (a.u.).

For the sequence “CGCCGCCGCTATTTTCGTGTTTTTTGATTTCACGGTGCGCCGGAGTCACCTAGTGCAG”, the binding signal was 9340 fluorescence intensity (a.u.).

For “GCTTACCTCCACAATCACACTGAGCTAACCTCCATTTCCACGGAGTCACCTAGTGCAG”, the binding signal is 9470 fluorescence intensity (a.u.).

Take “GTCCGACAAATTTACTTTCACGCTTTACCCTTTCTCTTTTCGGAGTCACCTAGTGCAG”: the binding signal is 10100 fluorescence intensity (a.u.).
